Data as given in PubChem BioAssay AID1259254 (NCATS, 2017).

Test: 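Finding genes that stop cells copying their DNA twice in one cycle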 (primary screen)
Cell system: human HCT116 colorectal cancer cells
Knock-down reagent: single siRNA against human genes
Timing: 3 days
Measured: 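Nuclei stained with Hoechst and imaged; cell-cycle phase assigned by DNA content; G2 share scaled per plate, non-targeting siRNA 0%, GMNN siRNA 100%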
Reading the numbers: G2 robust z-score: higher = more G2 cells, more excess DNA replication
Hit rule: 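Active siRNAs have a G2 robust z of 5 or more median absolute deviations over the median, which in these data means about 38% or higher of GMNN control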
Here is a random part of about 59,000 deposited reagents. About 1,550 of them (2.6%) count as active. 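G2 share is only a proxy for re-replication; each gene was hit by three separate siRNAs, and active genes were retested.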 Reagents against one gene are numbered here. Not all columns of the deposit are shown. Reagent sequences are not shown. The record does not give: the amount of reagent.

| gene | siRNA no. | G2 robust z-score | Outcome |
| --- | --- | --- | --- |
| SH3BP5 | 1 | -1.1 | inactive |
| SH3BP5 | 2 | 0.859 | inactive |
| SH3BP5 | 3 | -0.203 | inactive |
| SCGB1B2P | 1 | -0.0556 | inactive |
| SCGB1B2P | 2 | -0.801 | inactive |
| SCGB1B2P | 3 | -1.02 | inactive |
| ARL2 | 1 | 0.955 | inactive |
| ARL2 | 2 | -0.332 | inactive |
| ARL2 | 3 | 5.68 | active |
| IPO5 | 1 | -0.564 | inactive |
| IPO5 | 2 | 0.563 | inactive |
| IPO5 | 3 | 0.408 | inactive |
| PLEKHA8 | 1 | -0.373 | inactive |
| PLEKHA8 | 2 | -0.21 | inactive |
| PLEKHA8 | 3 | -0.815 | inactive |
| ZNF641 | 1 | 0.304 | inactive |
| ZNF641 | 2 | 0.674 | inactive |
| ZNF641 | 3 | -0.995 | inactive |
| MEAK7 | 1 | -0.339 | inactive |
| MEAK7 | 2 | -0.777 | inactive |
| MEAK7 | 3 | -0.613 | inactive |
| RPSA | 1 | 1.05 | inactive |
| RPSA | 2 | 2.32 | inactive |
| RPSA | 3 | 0.104 | inactive |
| PSME3IP1 | 1 | 2.41 | inactive |
| PSME3IP1 | 2 | -0.337 | inactive |
| PSME3IP1 | 3 | -0.871 | inactive |
| DCLRE1C | 1 | -0.836 | inactive |
| DCLRE1C | 2 | -0.544 | inactive |
| DCLRE1C | 3 | -0.944 | inactive |
| LYPLAL1 | 1 | 2.81 | inactive |
| LYPLAL1 | 2 | 0.916 | inactive |
| LYPLAL1 | 3 | -0.912 | inactive |
| TMEM200B | 1 | 1.2 | inactive |
| TMEM200B | 2 | 5.65 | active |
| TMEM200B | 3 | -0.4 | inactive |
| ADORA2A | 1 | 0.0486 | inactive |
| ADORA2A | 2 | 1.16 | inactive |
| ADORA2A | 3 | 0.667 | inactive |

Quoted from the entries so far (9 entries):
| gene | siRNA no. | G2 robust z-score | Outcome |
| --- | --- | --- | --- |
| DCLRE1C | 3 | -0.944 | inactive |
| LYPLAL1 | 1 | 2.81 | inactive |
| LYPLAL1 | 2 | 0.916 | inactive |
| LYPLAL1 | 3 | -0.912 | inactive |
| TMEM200B | 1 | 1.2 | inactive |
| TMEM200B | 2 | 5.65 | active |
| TMEM200B | 3 | -0.4 | inactive |
| ADORA2A | 1 | 0.0486 | inactive |
| ADORA2A | 2 | 1.16 | inactive |

The listing continues.
| gene | siRNA no. | G2 robust z-score | Outcome |
| --- | --- | --- | --- |
| RNF180 | 1 | 1.65 | inactive |
| RNF180 | 2 | 0.927 | inactive |
| RNF180 | 3 | 6.99 | active |
| CD70 | 1 | -0.559 | inactive |
| CD70 | 2 | 0.647 | inactive |
| CD70 | 3 | -0.0373 | inactive |
| ANKRD37 | 1 | -0.013 | inactive |
| ANKRD37 | 2 | -0.673 | inactive |
| ANKRD37 | 3 | 0.578 | inactive |
| LHFPL6 | 1 | 0.829 | inactive |
| LHFPL6 | 2 | -0.215 | inactive |
| LHFPL6 | 3 | 0.886 | inactive |
| NOVA1 | 1 | -0.353 | inactive |
| NOVA1 | 2 | 2.21 | inactive |
| NOVA1 | 3 | -1.2 | inactive |
| INPP1 | 1 | -0.981 | inactive |
| INPP1 | 2 | -0.464 | inactive |
| INPP1 | 3 | -0.14 | inactive |
| OR1L1 | 1 | -0.877 | inactive |
| OR1L1 | 2 | 2.85 | inactive |
| OR1L1 | 3 | -0.0538 | inactive |
| ZNF654 | 1 | 0.741 | inactive |
| ZNF654 | 2 | 1.77 | inactive |
| ZNF654 | 3 | 4.86 | inactive |
| LOC642355 | 1 | 0.244 | inactive |
| LOC642355 | 2 | -0.135 | inactive |
| LOC642355 | 3 | -0.124 | inactive |
| ELAVL2 | 1 | 0.557 | inactive |
| ELAVL2 | 2 | 1.68 | inactive |
| ELAVL2 | 3 | -1.03 | inactive |
